The target of the assay is Rpl17-TAP (S. cerevisiae) (UniProt P05740). As to the kind of experiment: co-IP; TAP-tagged bait from cycloheximide-treated yeast lysate captured on IgG-coupled magnetic beads, 4°C, 2 h, 50 mM Hepes-KOH pH 7.5, 140 mM KCl, 10 mM MgCl2, NP-40; eluted with TEV protease; eluate immunoblotted (anti-Rpl3, anti-Egd2, anti-TAP). In general terms: A western blot detects proteins with antibodies after separation by electrophoresis.

The chains behind the UniProt entries cited, without tags or fusion partners. Where a name states a change or a piece, a line headed by the entry shows the natural chain unless it says otherwise.
UniProt P05740: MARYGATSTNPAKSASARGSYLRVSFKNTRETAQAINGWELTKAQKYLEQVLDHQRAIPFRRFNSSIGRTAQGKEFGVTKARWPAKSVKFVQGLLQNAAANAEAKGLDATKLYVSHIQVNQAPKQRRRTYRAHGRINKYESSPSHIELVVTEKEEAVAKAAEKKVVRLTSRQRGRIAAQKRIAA
UniProt P14126: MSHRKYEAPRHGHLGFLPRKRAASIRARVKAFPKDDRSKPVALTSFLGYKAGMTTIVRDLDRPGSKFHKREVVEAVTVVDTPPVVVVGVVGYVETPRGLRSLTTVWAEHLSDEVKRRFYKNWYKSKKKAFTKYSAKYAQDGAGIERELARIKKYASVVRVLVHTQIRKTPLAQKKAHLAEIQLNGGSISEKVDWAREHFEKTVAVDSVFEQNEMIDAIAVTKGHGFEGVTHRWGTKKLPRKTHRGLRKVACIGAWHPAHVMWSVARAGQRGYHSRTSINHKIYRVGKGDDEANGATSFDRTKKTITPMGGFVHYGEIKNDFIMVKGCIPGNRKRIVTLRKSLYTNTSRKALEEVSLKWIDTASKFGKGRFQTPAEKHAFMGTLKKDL

No constants are given. Whether binding was seen depends on the method and setting. In cells and extracts the contact can be indirect. A result given as binding can be weak or reduced; the word gives no strength.

On to “ribosomal protein Rpl3 (from UniProt P14126 1-387)”, for which the binding entry is reported as “binds”.

These data come from paper PMC3134442.
